{"source": "the supplement of paper PMC3334620", "note": "In all, about 33,000 sequences were measured (“E-score (-0.5 to 0.5)”: median about -0.016, highest 2% from about 0.3 on). Some of the results follow."}
{"target": "T1, Yer184c (UniProt P39961)", "T1 sequence": "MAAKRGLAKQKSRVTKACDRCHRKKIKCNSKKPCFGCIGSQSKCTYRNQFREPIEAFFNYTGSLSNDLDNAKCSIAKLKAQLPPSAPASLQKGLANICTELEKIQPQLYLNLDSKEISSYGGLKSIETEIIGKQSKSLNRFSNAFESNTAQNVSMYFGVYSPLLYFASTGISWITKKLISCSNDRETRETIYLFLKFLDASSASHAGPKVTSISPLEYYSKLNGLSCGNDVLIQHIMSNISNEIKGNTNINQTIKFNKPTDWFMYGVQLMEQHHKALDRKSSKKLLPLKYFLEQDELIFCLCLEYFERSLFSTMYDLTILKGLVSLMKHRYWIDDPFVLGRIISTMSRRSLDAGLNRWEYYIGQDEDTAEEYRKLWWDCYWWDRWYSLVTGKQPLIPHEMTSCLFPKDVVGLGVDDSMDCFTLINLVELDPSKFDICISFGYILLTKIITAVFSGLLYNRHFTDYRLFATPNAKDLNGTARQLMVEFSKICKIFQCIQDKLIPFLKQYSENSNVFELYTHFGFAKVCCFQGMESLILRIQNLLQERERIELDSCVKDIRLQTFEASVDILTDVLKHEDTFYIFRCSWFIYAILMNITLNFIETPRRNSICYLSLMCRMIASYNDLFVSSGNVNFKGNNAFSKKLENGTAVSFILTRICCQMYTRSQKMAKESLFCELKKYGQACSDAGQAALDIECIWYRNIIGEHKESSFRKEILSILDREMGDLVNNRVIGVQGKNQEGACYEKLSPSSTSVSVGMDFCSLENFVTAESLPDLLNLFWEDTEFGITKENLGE", "assay": "PBM E-score (8-mer binding enrichment) (E-score (-0.5 to 0.5)); higher = stronger / more preferred TF binding", "settings": "protein concentration: 100 nM; construct: GST-full length", "summary_of_the_method": "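Universal all-10-mer Agilent arrays, double-stranded by primer extension on fresh or once-stripped slides, were probed with about 100-200 nM GST-tagged yeast transcription factors made by PURExpress. Fluorescent anti-GST detected bound protein, and masliner normalised the scans. E-scores from the Universal PBM Analysis Suite were given to each ungapped eight-base word pooled with its reverse complement.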"}
{"sequence": "ATGTCCTG", "PBM E-score": 0.0779}
{"sequence": "AAAATCAT", "PBM E-score": 0.219}
{"sequence": "ATTGGATG", "PBM E-score": 0.0431}
{"sequence": "AGGTCTTC", "PBM E-score": -0.115}
{"sequence": "GATCTTTA", "PBM E-score": 0.106}
{"sequence": "GACCACCA", "PBM E-score": -0.0215}
{"sequence": "CAGTTGGC", "PBM E-score": -0.138}
{"sequence": "ACGCGATA", "PBM E-score": -0.128}
{"sequence": "GGCCATTA", "PBM E-score": -0.0323}
{"sequence": "CGTGTACC", "PBM E-score": -0.0823}
{"sequence": "CACATACG", "PBM E-score": -0.287}
{"sequence": "AATATCGG", "PBM E-score": 0.286}
{"sequence": "GTTGCCAA", "PBM E-score": -0.035}
{"sequence": "CGGTCTGA", "PBM E-score": 0.208}
{"sequence": "AATCGCAG", "PBM E-score": -0.0676}
{"sequence": "ATTCTGGA", "PBM E-score": 0.218}
{"sequence": "CGAGGAAC", "PBM E-score": 0.184}
{"sequence": "ACTATTAA", "PBM E-score": 0.141}
{"sequence": "AGAAATGC", "PBM E-score": 0.0544}
{"sequence": "AAGCAGCA", "PBM E-score": -0.196}
{"sequence": "ATTAGTCA", "PBM E-score": 0.162}
{"sequence": "CAAAACAA", "PBM E-score": -0.0896}
{"sequence": "GACATTCC", "PBM E-score": -0.0605}
{"sequence": "AGGCGCTA", "PBM E-score": -0.0158}
{"sequence": "CACTCATG", "PBM E-score": -0.142}
{"sequence": "CTTGCACC", "PBM E-score": 0.0155}
{"sequence": "ACGCACAG", "PBM E-score": -0.0839}
{"sequence": "CCGCCCAC", "PBM E-score": -0.0179}
{"sequence": "CACCGTTA", "PBM E-score": -0.0428}
{"sequence": "AGGCTAAA", "PBM E-score": -0.0661}
{"sequence": "CCGGCAAG", "PBM E-score": 0.331}
{"sequence": "GTCTATGA", "PBM E-score": 0.00499}
{"sequence": "AAATATTG", "PBM E-score": 0.208}
{"sequence": "AATGATTA", "PBM E-score": 0.218}
{"sequence": "AAGGATCC", "PBM E-score": -0.0186}
{"sequence": "GGCGACAC", "PBM E-score": 0.129}
{"sequence": "CGTCTCGA", "PBM E-score": 0.0829}
{"sequence": "AGTTCATC", "PBM E-score": 0.0688}
{"sequence": "AAGGATGT", "PBM E-score": -0.183}
{"sequence": "GGCGGGTA", "PBM E-score": -0.103}
{"sequence": "AACTATAC", "PBM E-score": 0.0454}
{"sequence": "AACGTTAC", "PBM E-score": 0.074}
{"sequence": "GAAGATCA", "PBM E-score": -0.00997}
{"sequence": "GCGATGCA", "PBM E-score": -0.248}
{"sequence": "CGAACAGA", "PBM E-score": 0.209}
{"sequence": "GTCGCGAA", "PBM E-score": 0.00034}
{"sequence": "ACCGACAT", "PBM E-score": 0.154}
{"sequence": "ACCAAACC", "PBM E-score": -0.034}
{"sequence": "TATCCGAA", "PBM E-score": 0.386}
{"sequence": "GAGAGCCA", "PBM E-score": -0.0998}
{"sequence": "CCGGGTTC", "PBM E-score": 0.356}
{"sequence": "AAGATCAC", "PBM E-score": -0.0399}
{"sequence": "CCAGGCTC", "PBM E-score": -0.118}
{"sequence": "GCCAGGTA", "PBM E-score": -0.144}
{"sequence": "AAGGGCTA", "PBM E-score": -0.166}
{"sequence": "CGAGGATC", "PBM E-score": 0.0927}
{"sequence": "GGGTGACC", "PBM E-score": -0.0707}
{"sequence": "CCTGGGAG", "PBM E-score": -0.237}
{"sequence": "AAAAAACT", "PBM E-score": -0.121}
{"sequence": "ATGTCTAC", "PBM E-score": -0.103}
{"sequence": "GATACATC", "PBM E-score": -0.0575}
{"sequence": "ATGTTGGA", "PBM E-score": 0.131}
{"sequence": "GCTTTCCA", "PBM E-score": 0.00811}
{"sequence": "GGTTTTCA", "PBM E-score": 0.0617}
{"sequence": "AAGATGCC", "PBM E-score": 0.0181}
{"sequence": "CTCCAAAG", "PBM E-score": -0.0443}
{"sequence": "AGGGGAAC", "PBM E-score": -0.271}
{"sequence": "ACTTTAGC", "PBM E-score": -0.00575}
{"sequence": "CATAAACC", "PBM E-score": 0.0467}
{"sequence": "CCTACTCG", "PBM E-score": -0.0284}
{"sequence": "AGGTATGG", "PBM E-score": -0.337}
{"sequence": "GACCTAGA", "PBM E-score": -0.136}
{"sequence": "CGCGTTAC", "PBM E-score": -0.108}
{"sequence": "CATAACGG", "PBM E-score": -0.0464}
{"sequence": "TTCTAAAA", "PBM E-score": 0.235}
{"sequence": "GTTAAAAC", "PBM E-score": 0.209}
{"sequence": "ATAATGCC", "PBM E-score": 0.0664}
{"sequence": "TACTCTGA", "PBM E-score": -0.171}
{"sequence": "CATTTCCC", "PBM E-score": 0.122}
{"sequence": "CGTCCTAA", "PBM E-score": -0.178}
{"sequence": "GCGTGCAC", "PBM E-score": -0.0535}
{"sequence": "AACACTAA", "PBM E-score": 0.101}
{"sequence": "AACAACTG", "PBM E-score": 0.103}
{"sequence": "GATAAGGA", "PBM E-score": 0.209}
{"sequence": "GGAAATGA", "PBM E-score": 0.188}
{"sequence": "AATCACGT", "PBM E-score": 0.0406}
{"sequence": "CGCTAGCA", "PBM E-score": -0.141}
{"sequence": "GCACGAAC", "PBM E-score": 0.0972}
{"sequence": "CCATCTAA", "PBM E-score": -0.0599}
{"sequence": "GGAATCAC", "PBM E-score": 0.121}
{"sequence": "AGAGCACG", "PBM E-score": -0.0154}
{"sequence": "AGGCCGAG", "PBM E-score": 0.143}
{"sequence": "TGGCTGAA", "PBM E-score": -0.121}
{"sequence": "ATGTCGGG", "PBM E-score": -0.0686}
{"sequence": "CAGATCGA", "PBM E-score": -0.0498}
{"sequence": "CCCCCACG", "PBM E-score": -0.335}
{"sequence": "GTCATGCA", "PBM E-score": -0.0558}
{"sequence": "ACATCGGA", "PBM E-score": 0.223}
{"sequence": "AGCCTGTG", "PBM E-score": -0.199}
{"sequence": "ATCTCTAC", "PBM E-score": -0.101}
{"sequence": "GACTTTAA", "PBM E-score": 0.105}
{"sequence": "CACTGCCG", "PBM E-score": 0.258}
{"sequence": "AAATTAAG", "PBM E-score": 0.119}
{"sequence": "CTATAACC", "PBM E-score": -0.148}
{"sequence": "CCATGCGG", "PBM E-score": -0.135}
{"sequence": "AGTTATTA", "PBM E-score": 0.0498}
{"sequence": "CTTCCTGC", "PBM E-score": -0.314}
{"sequence": "CAGTGCTA", "PBM E-score": -0.109}
{"sequence": "AGGATTTC", "PBM E-score": 0.00676}
